The target of assay [1] is 3HA-MCHR1 (melanin-concentrating hormone receptor 1) (mouse) (UniProt Q8JZL2). The assay is described as follows: co-IP; HEK293T cells co-transfected with 3HA-MCHR1 and a 2Flag-MRAP construct; extracts 24-36 h after transfection incubated with mouse anti-HA or anti-Flag antibody overnight at 4°C, protein A+G beads 4 h at 4°C, three washes; MRAP1/MRAP2 detected with anti-FLAG in MCHR1 immunoprecipitates.

Amino acid sequences for entries named in this document (tags omitted).
UniProt Q8JZL2: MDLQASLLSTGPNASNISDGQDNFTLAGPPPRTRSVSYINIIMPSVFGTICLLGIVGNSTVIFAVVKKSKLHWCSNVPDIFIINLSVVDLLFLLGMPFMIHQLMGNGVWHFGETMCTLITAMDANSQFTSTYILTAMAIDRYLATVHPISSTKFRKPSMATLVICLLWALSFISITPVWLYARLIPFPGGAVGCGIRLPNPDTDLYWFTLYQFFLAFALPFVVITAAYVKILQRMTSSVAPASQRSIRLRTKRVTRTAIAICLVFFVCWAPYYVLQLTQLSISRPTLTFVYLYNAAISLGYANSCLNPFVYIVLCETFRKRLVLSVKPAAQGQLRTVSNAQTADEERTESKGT

The next assay concerns the target MCHR1-F1 (mouse) (UniProt Q8JZL2). In words: split reporter; BiFC in HEK293T cells co-transfected with MCHR1-F1 (YFP-F1) and MRAP1-Flag-F2 or MRAP2-Flag-F2 (YFP-F2); cells fixed with 4% PFA, confocal microscopy.

Numbering of substitutions follows the chain as printed. These are yes or no findings as the source states them, for the method shown. Binding seen in cells or lysates may run through a third protein. Some entries that bind do so weakly or less than the wild type. Where a sequence is shown, tags or fusion partners need not be part of it.

B1: 2Flag-MRAP2 Δ26–35 (protein, UniProt D3Z1Q2)
chain: MEMSAQRLASNRTSPQSPSNSDYTWSFEGLKAHKYSIVIGFWVGLAVFVIFMFFVLTLLTKTGAPHQDNAESSERRFRMNSFVSDFGKPLESDKVFSRQGNEESRSLFHCYINEVEHLDRVKVCHQTTAIDSDVHLQEASRSSGRPEEELARFMKFDIPNFVNTEQSSFGEDDLLISEAPVLLENKPVSQTSRIDLD
As for B1, the binding entry in assay [1] is listed as “binds”.

B2: 2Flag-MRAP2 Δ36–45 (protein, UniProt D3Z1Q2)
chain: B1 chain with S26E, F27Y, G29Y, L30Y, K31E, A32I, H33G, K34P, Y35V
B2: the binding result in assay [1] is “binds”.

B3: 2Flag-MRAP2 Δ4–11 (protein, UniProt D3Z1Q2)
chain: MEMRTSPQSPSNSDYTWEYEYYEIGPVSFEGLKAHKYSIVIGFWVGLAVFVIFMFFVLTLLTKTGAPHQDNAESSERRFRMNSFVSDFGKPLESDKVFSRQGNEESRSLFHCYINEVEHLDRVKVCHQTTAIDSDVHLQEASRSSGRPEEELARFMKFDIPNFVNTEQSSFGEDDLLISEAPVLLENKPVSQTSRIDLD
For B3, the binding entry in assay [1] is listed as “binds”.

B4: 2Flag-MRAP2 Δ12–25 (protein, UniProt D3Z1Q2)
chain: MEMSAQRLASNEYEYYEIGPVSFEGLKAHKYSIVIGFWVGLAVFVIFMFFVLTLLTKTGAPHQDNAESSERRFRMNSFVSDFGKPLESDKVFSRQGNEESRSLFHCYINEVEHLDRVKVCHQTTAIDSDVHLQEASRSSGRPEEELARFMKFDIPNFVNTEQSSFGEDDLLISEAPVLLENKPVSQTSRIDLD
On to B4, for which the binding entry in assay [1] is recorded as “binds”.

B5: 2Flag-MRAP2 (melanocortin receptor accessory protein 2), wild type (protein, UniProt D3Z1Q2 1-207)
chain: MEMSAQRLASNRTSPQSPSNSDYTWEYEYYEIGPVSFEGLKAHKYSIVIGFWVGLAVFVIFMFFVLTLLTKTGAPHQDNAESSERRFRMNSFVSDFGKPLESDKVFSRQGNEESRSLFHCYINEVEHLDRVKVCHQTTAIDSDVHLQEASRSSGRPEEELARFMKFDIPNFVNTEQSSFGEDDLLISEAPVLLENKPVSQTSRIDLD
For B5, the binding entry in assay [1] is on record as “binds”.

B6: MRAP2-Flag-F2 (protein, UniProt D3Z1Q2 1-207)
chain: B5 chain
Consider B6, for which the binding result with MCHR1-F1 (mouse) is “binds”.

These data come from PMC8931191.
